Drawing on PMC3882260, this text covers binding for 1 substance.

No constants are given. Whether binding was seen depends on the method and setting.

The target in this test is T1, Nogo receptor (NgR) (UniProt Q9BZR6).
T1 sequence: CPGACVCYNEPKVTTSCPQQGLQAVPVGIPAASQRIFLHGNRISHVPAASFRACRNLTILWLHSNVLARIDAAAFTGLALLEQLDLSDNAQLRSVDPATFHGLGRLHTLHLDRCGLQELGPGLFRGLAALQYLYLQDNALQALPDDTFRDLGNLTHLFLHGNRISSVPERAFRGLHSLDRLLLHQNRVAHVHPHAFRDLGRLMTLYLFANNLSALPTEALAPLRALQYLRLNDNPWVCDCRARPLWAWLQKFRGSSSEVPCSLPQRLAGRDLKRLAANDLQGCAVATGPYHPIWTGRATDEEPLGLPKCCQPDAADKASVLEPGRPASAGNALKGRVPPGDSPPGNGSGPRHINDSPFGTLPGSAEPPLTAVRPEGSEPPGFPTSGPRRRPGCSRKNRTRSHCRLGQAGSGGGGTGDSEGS
The test is described as follows: alkaline phosphatase (AP) fusion protein binding to transfected cells; COS-7 cells transfected with DCC or NgR; 20 nM AP, CBLN4-AP or Nogo 66-AP from conditioned media, 90 min, room temperature, binding buffer with 2 µg/ml heparin; NBT/BCIP development.

Regarding Alkaline Phasphatase (AP) (enzyme), the binding result is listed as “no binding (tested: 20 nM)”.
